Assay results reported in publication PMC6199744, “Development of Chemical Proteomics for the Folateome and Analysis of the Kinetoplastid Folateome” (ACS Infectious Diseases, 2018).
Values joined by “and” are separate entries in the source; they are usually repeats but may differ in a detail not shown here. Equal entries are not always repeated. Where two headings read alike, the source gives them in different places. Further values from the same series stand in other lists.

Tested on: L. major lysate proteins
Experiment: Multitargeted bead mixture chemoproteomics, single concentration competition, proteome-wide
Assay type: binding

CCCCCCOc1ccc(Cc2cnc(N)nc2N)cc1 [compound 1]
fold change: 1.07 and 1.02 and 1.06 and 0.86 and 1.27 and 1.01 | fold change (LINJ.11.0960 40S RIBOSOMAL PROTEIN S5, vehicle control = 1): 0.94 | fold change (LINJ.11.1180 40S RIBOSOMAL PROTEIN S15A, PUTATIVE, vehicle control = 1): 1.23 | fold change (LINJ.15.1170 HYPOTHETICAL PROTEIN, CONSERVED, vehicle control = 1): 0.94 | fold change (LINJ.18.0270 GLYCOGEN SYNTHASE KINASE 3, vehicle control = 1): 0.99 | fold change (LINJ.21.1790 40S RIBOSOMAL PROTEIN S11, PUTATIVE, vehicle control = 1): 0.92 | fold change (LINJ.22.0180 HYPOTHETICAL PROTEIN, CONSERVED, vehicle control = 1): 1.73 | fold change (LINJ.25.2170 HY[…], CONSERVED, vehicle control = 1): 1.02 | fold change (LINJ.28.2870 PROTEIN PHOSPHATASE 4 CATALYTIC SUBUNIT, PUTATIVE, vehicle control = 1): 0.71 | fold change (LINJ.29.0020 TRANSCRIPTION FACTOR-LIKE PROTEIN, vehicle control = 1): 0.83 | fold change (LINJ.29.0110 HY[…], CONSERVED, vehicle control = 1): 1.07 | fold change (LINJ.30.3080 EUKARYOTIC TRANSLATION INITIATION FACTOR 3 SUBUNIT 7-LIKE PROTEIN, vehicle control = 1): 0.98 | fold change (LINJ.33.0960 40S RIBOSOMAL PROTEIN S3, PUTATIVE, vehicle control = 1): 1.16 | fold change (LINJ.35.1820 HYPOTHETICAL PROTEIN, CONSERVED, vehicle control = 1): 0.74 | fold change (LINJ.35.2240 RNA-BINDING PROTEIN, PUTATIVE, vehicle control = 1): 0.85 | fold change (LINJ.36.1160 RIBOSOMAL PROTEIN L24, PUTATIVE, vehicle control = 1): 0.73 | fold change (LINJ.36.1580 HYPOTHETICAL PROTEIN, CONSERVED,NIMA-RELATED PROTEIN KINASE, PUTATIVE, vehicle control = 1): 0.61 | fold change (LMJF.01.0570 TRIC[…], PUTATIVE, vehicle control = 1): 0.88 | fold change (LMJF.03.0190 U2 SPLICING AUXILIARY FACTOR, PUTATIVE, vehicle control = 1): 0.77 | fold change (LMJF.03.0540 26S PROTEASE […], PUTATIVE, vehicle control = 1): 1.01 | fold change (LMJF.05.0280 PROTEIN TYROSINE PHOSPHATASE, PUTATIVE, vehicle control = 1): 1.03 | fold change (LMJF.05.1140 VACUOLAR ATPASE SUBUNIT-LIKE PROTEIN, vehicle control = 1): 0.87 | fold change (LMJF.06.0370 GLUTAMINE SYNTHETASE, PUTATIVE, vehicle control = 1): 0.99 | fold change (LMJF.07.1050 CATION-TRANSPORTING ATPASE, PUTATIVE, vehicle control = 1): 0.91 | fold change (LMJF.08.0410 HYPOTHETICAL PROTEIN, CONSERVED, vehicle control = 1): 0.86 | fold change (LMJF.08.1130 PHOSPHORIBOSYLPYROPHOSPHATE SYNTHETASE, vehicle control = 1): 0.56 | fold change (LMJF.10.0310 PROTEIN TRANSPORT PROTEIN SEC23, PUTATIVE, vehicle control = 1): 1.09 | fold change (LMJF.10.0910 SMALL GTP-BINDING PROTEIN RAB11, PUTATIVE, vehicle control = 1): 0.76 | fold change (LMJF.11.0590 3-[…]-COA C[…] SUBUNIT, PUTATIVE, vehicle control = 1): 0.8 | fold change (LMJF.11.1000 PYRUVATE PHOSPHATE DIKINASE, PUTATIVE, vehicle control = 1): 0.85 | fold change (LMJF.11.1030 HY[…], CONSERVED, vehicle control = 1): 1.03 | fold change (LMJF.13.1230 40S RIBOSOMAL PROTEIN S4, PUTATIVE, vehicle control = 1): 1.06 | fold change (LMJF.14.0670 FATTY ACID ELONGASE, PUTATIVE, vehicle control = 1): 1.12 | fold change (LMJF.14.1320 SERINE […] (SHMT-S), vehicle control = 1): 1.05 | fold change (LMJF.15.0040 HYPOTHETICAL PROTEIN, CONSERVED, vehicle control = 1): 0.66 | fold change (LMJF.15.0970 NAD/FAD DEPENDENT DEHYDROGENASE, PUTATIVE, vehicle control = 1): 0.41 | fold change (LMJF.16.0440 FUCOSE KINASE, PUTATIVE, vehicle control = 1): 0.77 | fold change (LMJF.16.0550 OROTIDINE-5-PHOSPHATE DECARBOXYLASE/OROTATE PHOSPHORIBOSYLTRANSFERASE, PUTATIVE, vehicle control = 1): 0.95 | fold change (LMJF.17.1290 TRANSLATION INITIATION FACTOR, PUTATIVE, vehicle control = 1): 0.39 | fold change (LMJF.18.0700 HYPOTHETICAL PROTEIN, CONSERVED, vehicle control = 1): 0.81 | fold change (LMJF.18.1090 CAMP PHOSPHO[…], PUTATIVE, vehicle control = 1): 1.03 | fold change (LMJF.18.1280 HYPOTHETICAL PROTEIN, CONSERVED, vehicle control = 1): 0.96 | fold change (LMJF.18.1510 P-TYPE H -ATPASE, PUTATIVE, vehicle control = 1): 1 | fold change (LMJF.19.0200 ADP,ATP CARRIER PROTEIN 1, MIT[…], PUTATIVE, vehicle control = 1): 1.11 | fold change (LMJF.19.1510 HYPOTHETICAL PROTEIN, CONSERVED, vehicle control = 1): 0.91 | fold change (LMJF.20.1180 CALPAIN-LIKE CYSTEINE PEPTIDASE, PUTATIVE, vehicle control = 1): 0.71 | fold change (LMJF.21.0015 HISTONE H4, vehicle control = 1): 0.87 | fold change (LMJF.21.0250 HEXOKINASE, PUTATIVE, vehicle control = 1): 0.95 | fold change (LMJF.21.0820 HY[…], CONSERVED, vehicle control = 1): 0.84 | fold change (LMJF.21.1450 ARGININE N-METHYLTRANSFERASE, TYPE II, PUTATIVE, vehicle control = 1): 0.8 | fold change (LMJF.21.1770 ATP SYNTHASE F1 SUBUNIT GAMMA PROTEIN, PUTATIVE, vehicle control = 1): 1.18 | fold change (LMJF.21.1860 BETA TUBULIN, vehicle control = 1): 1.05 | fold change (LMJF.22.0770 NADH-CYTOCHROME B5 REDUCTASE, PUTATIVE, vehicle control = 1): 0.77 | fold change (LMJF.22.0990 HYPOTHETICAL PROTEIN, CONSERVED, vehicle control = 1): 0.93 | fold change (LMJF.22.1630 CCR4 ASSOCIATED FACTOR, PUTATIVE, vehicle control = 1): 0.74 | fold change (LMJF.23.0080 HYPOTHETICAL PROTEIN, CONSERVED, vehicle control = 1): 0.91 | fold change (LMJF.23.0110 GDP-MANNOSE PYROPHOSPHORYLASE, vehicle control = 1): 0.92 | fold change (LMJF.23.0210 ATP-BINDING CASSETTE PROTEIN SUBFAMILY C, MEMBER 1, PUTATIVE, vehicle control = 1): 0.78 | fold change (LMJF.23.0640 HYPOTHETICAL PROTEIN, CONSERVED, vehicle control = 1): 0.88 | fold change (LMJF.24.0070 HYPOTHETICAL PROTEIN, CONSERVED, vehicle control = 1): 0.91 | fold change (LMJF.27.0130 HY[…], CONSERVED, vehicle control = 1): 1.17 | fold change (LMJF.27.0650 HYPOTHETICAL PROTEIN, CONSERVED, vehicle control = 1): 0.96 | fold change (LMJF.28.2310 EUKARYOTIC TRANSLATION INITIATION FACTOR, PUTATIVE, vehicle control = 1): 0.95 | fold change (LMJF.28.2510 ACYL-COA DEHYDROGENASE, PUTATIVE, vehicle control = 1): 0.95 | fold change (LMJF.29.1500 HYPOTHETICAL PROTEIN, CONSERVED, vehicle control = 1): 0.8
